# According to patent publication US8906945B2 (priority 2009, dated 2014):
# pIC50: −log10 of the molar value. Some of these results come from one statement about several compounds together. At least one structure is not confirmed: it was looked up by name or label, or the drawing left a doubt.
# System: T3SS-mediated secretion of ExoS′-βLA fusion protein from P. aeruginosa strain MDM973
# Type: cell-based, Pseudomonas aeruginosa
# Details: read-out: IC50 in the ExoS′-βLA secretion assay
row,SMILES,pIC50
1,"CCN1CCOC(CC(=O)Nc2ccc3c(c2)OCCO3)C1=O (stereo not drawn) [Compound 3, N-(2,3-dihydrobenzo[b][1,4]dioxin-6-yl)-2-(4-ethyl-3-oxomorpholin-2-yl)acetamide]",≥ 4.82
2,"Cc1ccc(N2C(=O)C3C(C2=O)C2(C)C=CC3(C)O2)c(C)c1 (stereo not drawn) [Compound 8, 2-(2,4-dimethylphenyl)-4,7-dimethyl-3a,4,7,7a-tetrahydro-1H-4,7-epoxyisoindole-1,3(2H)-dione]",≥ 4.82
3,"CC(C)(Oc1ccc(Cl)cc1Cl)C(=O)NCc1ccc2c(c1)OCO2 [MBX 1685, N-[3,4-(methylenedioxy)benzyl]-2-(2,4-dichlorophenoxy)-2-methylpropanamide]",< 4.00
4,"CC(Oc1ccc(Cl)cc1Cl)C(=O)NCc1ccc2c(c1)OCO2 (racemic) [Compound 1, N-(benzo[d][1,3]dioxol-5-ylmethyl)-2-(2,4-dichlorophenoxy)propanamide]",≥ 4.82
5,"O=C(COc1ccc(Cl)cc1Cl)NCc1ccc2c(c1)OCO2 [MBX 1668, N-[3,4-(methylenedioxy)benzyl]-2-(2,4-dichlorophenoxy)acetamide]",< 4.00
6,"CCN1CCOC(CC(=O)Nc2ccc(F)cc2)C1=O (stereo not drawn) [Compound 4, 2-(4-ethyl-3-oxomorpholin-2-yl)-N-(4-fluorophenyl)acetamide]",≥ 4.82
